Only a part is listed here, and it is no random draw. For part of these data: At the low end of the ranking the order means little. This is one part of the list. For part of these data: The exact form of the protein is not confirmed.

Protein sequences, listed by entry. Tags and fused reporters are not part of them. Lines headed by an entry give the natural chain unless they say otherwise; changes in a name come on top.
UniProt P32519: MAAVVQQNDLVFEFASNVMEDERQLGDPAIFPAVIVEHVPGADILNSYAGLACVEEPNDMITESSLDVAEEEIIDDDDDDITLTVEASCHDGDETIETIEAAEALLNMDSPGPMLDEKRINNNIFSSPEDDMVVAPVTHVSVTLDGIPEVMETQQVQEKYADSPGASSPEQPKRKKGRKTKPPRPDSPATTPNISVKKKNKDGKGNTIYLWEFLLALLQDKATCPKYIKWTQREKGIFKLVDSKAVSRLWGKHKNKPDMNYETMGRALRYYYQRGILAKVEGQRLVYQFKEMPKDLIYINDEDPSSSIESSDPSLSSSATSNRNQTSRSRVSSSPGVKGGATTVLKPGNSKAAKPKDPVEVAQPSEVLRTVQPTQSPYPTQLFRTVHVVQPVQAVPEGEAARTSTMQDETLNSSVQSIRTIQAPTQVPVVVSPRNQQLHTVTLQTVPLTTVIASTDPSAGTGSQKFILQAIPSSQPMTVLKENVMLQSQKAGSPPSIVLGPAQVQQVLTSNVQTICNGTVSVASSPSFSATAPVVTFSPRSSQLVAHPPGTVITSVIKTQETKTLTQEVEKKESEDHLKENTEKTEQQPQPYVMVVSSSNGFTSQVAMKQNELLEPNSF
UniProt P50549: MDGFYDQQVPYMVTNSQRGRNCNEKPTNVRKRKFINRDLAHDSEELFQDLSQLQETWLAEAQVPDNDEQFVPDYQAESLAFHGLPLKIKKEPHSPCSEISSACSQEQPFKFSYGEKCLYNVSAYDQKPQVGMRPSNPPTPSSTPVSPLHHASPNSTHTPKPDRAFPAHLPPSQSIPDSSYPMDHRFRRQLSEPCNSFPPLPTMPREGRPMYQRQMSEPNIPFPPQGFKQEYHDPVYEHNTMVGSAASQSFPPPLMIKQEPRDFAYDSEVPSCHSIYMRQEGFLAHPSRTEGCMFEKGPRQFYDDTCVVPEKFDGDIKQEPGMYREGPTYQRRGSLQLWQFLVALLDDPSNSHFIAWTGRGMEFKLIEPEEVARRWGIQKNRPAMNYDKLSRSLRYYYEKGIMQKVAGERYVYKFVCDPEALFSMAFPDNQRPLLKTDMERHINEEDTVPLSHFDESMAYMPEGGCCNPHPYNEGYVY

Common to all, as to experiment: DAPPL (digital affinity profiling via proximity ligation, sequencing)
Conditions in all cases: 10 mM Tris-HCl pH 7.5, 50 mM NaCl, 1 mM DTT, 4% glycerol, room temperature, 30 min; GST-TFs on glutathione beads, 16-mer random dsDNA library, 0.1% …; high values mean tight binding; double strand, one strand shown; scale: fold enrichment (6-mer frequency, TF over GST control)

One experiment concerns the target T1, ERG (UniProt P11308).
T1 sequence: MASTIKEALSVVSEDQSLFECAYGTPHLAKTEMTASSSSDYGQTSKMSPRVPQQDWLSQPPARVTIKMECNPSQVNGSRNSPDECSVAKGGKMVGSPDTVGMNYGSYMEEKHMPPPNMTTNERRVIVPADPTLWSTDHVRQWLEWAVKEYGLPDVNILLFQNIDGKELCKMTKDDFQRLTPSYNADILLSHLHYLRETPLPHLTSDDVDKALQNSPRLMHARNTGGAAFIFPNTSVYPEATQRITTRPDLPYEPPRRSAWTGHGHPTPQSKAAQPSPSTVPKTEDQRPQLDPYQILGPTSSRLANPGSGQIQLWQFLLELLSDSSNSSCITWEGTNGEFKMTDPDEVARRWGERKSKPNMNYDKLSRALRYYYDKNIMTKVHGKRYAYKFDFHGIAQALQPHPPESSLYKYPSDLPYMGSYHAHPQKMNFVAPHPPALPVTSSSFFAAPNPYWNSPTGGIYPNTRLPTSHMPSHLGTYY

The next experiment concerns the target ELF1 (UniProt P32519).
The target of another experiment is T2, ELK4 (UniProt P28324-2).
T2 sequence: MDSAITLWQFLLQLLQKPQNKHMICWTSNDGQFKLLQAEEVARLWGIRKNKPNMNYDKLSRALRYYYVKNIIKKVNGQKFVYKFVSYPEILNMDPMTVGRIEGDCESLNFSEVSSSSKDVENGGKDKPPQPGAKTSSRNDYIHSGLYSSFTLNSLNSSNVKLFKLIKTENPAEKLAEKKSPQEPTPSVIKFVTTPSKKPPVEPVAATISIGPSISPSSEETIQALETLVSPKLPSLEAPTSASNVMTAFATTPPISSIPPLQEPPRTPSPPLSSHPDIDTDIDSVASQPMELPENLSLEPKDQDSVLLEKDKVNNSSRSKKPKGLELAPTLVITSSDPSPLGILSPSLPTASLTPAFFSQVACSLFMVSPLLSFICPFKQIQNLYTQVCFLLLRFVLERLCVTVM

The target of another experiment is T3, ETV4 (UniProt P43268).
T3 sequence: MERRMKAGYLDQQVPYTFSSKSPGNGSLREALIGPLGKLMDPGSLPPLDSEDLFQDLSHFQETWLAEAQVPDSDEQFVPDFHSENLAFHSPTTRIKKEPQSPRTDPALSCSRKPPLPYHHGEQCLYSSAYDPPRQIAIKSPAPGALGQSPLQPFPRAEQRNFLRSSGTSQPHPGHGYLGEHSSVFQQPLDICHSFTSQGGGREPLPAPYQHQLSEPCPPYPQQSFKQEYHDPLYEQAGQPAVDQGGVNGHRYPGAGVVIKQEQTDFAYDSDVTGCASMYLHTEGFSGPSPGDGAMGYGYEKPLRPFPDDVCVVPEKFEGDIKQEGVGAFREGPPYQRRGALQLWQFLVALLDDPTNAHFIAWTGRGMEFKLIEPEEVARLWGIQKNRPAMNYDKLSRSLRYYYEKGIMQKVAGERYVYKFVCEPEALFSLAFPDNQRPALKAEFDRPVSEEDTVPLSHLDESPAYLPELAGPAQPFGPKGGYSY

The target in a further experiment is ETV1 (UniProt P50549).
Another experiment addresses T4, ERF (UniProt P50548).
T4 sequence: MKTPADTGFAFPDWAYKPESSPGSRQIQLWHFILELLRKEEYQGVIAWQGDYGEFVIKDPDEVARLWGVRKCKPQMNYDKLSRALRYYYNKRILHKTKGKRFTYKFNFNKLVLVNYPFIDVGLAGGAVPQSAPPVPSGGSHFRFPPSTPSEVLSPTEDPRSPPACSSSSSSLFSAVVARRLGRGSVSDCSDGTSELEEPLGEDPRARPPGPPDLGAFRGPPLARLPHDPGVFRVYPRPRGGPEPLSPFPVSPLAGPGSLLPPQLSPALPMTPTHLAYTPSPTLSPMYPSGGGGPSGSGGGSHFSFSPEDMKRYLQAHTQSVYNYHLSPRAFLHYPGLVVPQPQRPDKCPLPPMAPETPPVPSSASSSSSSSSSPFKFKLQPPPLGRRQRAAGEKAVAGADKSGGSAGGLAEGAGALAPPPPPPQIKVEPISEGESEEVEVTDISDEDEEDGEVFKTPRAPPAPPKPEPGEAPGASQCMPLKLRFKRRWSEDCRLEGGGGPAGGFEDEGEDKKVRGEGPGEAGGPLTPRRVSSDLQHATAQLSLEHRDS

Regarding GAGCAG, the binding signal worked out at 0.644 in the experiment with ERG; 0.636 with ELF1; 0.547 with ELK4; 0.603 with ETV4; 0.674 in the experiment with ETV1; 0.64 with ERF.

AGACCA: the binding signal came out at 0.626 with ERG; 0.62 with ELF1; 0.617 with ELK4; 0.672 with ETV4; 0.623 with ETV1; 0.626 with ERF.

In the case of CCCGAG, the binding signal is 0.888 in the experiment with ERG; 0.881 with ELF1; 0.865 with ELK4; 0.811 with ETV4; 0.834 with ETV1; 0.984 with ERF.

As to GACCAC, the binding signal is 0.845 in the experiment with ERG; 0.927 in the experiment with ELF1; 0.85 in the experiment with ELK4; 0.907 with ETV4; 0.834 with ETV1; 0.881 in the experiment with ERF.

Turning to ACGTGG, the binding signal in the experiment with ERG stood at 0.587; in the experiment with ELF1, 0.585; with ELK4, 0.678; in the experiment with ETV4 it was 0.567; in the experiment with ETV1, 0.594; with ERF, 0.665.

In the case of CCAGGG, the binding signal is 0.623 with ERG; 0.599 with ELF1; 0.625 with ELK4; 0.636 with ETV4; 0.582 in the experiment with ETV1; 0.603 with ERF.

With CGTGTC, the binding signal with ERG came to 0.781; with ELF1 it was 0.758; with ELK4, 0.774; in the experiment with ETV4 it was 0.781; in the experiment with ETV1, 0.75; in the experiment with ERF, 0.683.

With GGGATC, the binding signal was 0.638 in the experiment with ERG; 0.632 with ELF1; 0.712 with ELK4; 0.617 with ETV4; 0.687 with ETV1; 0.582 in the experiment with ERF.

On to GTCGGC, for which the binding signal with ERG is 0.386; in the experiment with ELF1, 0.369; in the experiment with ELK4, 0.365; in the experiment with ETV4, 0.396; with ETV1, 0.354; with ERF, 0.388.

On to GTGTAT, for which the binding signal with ERG turned out to be 0.872; in the experiment with ELF1, 0.915; in the experiment with ELK4, 0.955; with ETV4, 0.993; in the experiment with ETV1, 0.86; with ERF, 0.957.

In the case of TTGAGT, the binding signal with ERG was 0.641; with ELF1, 0.754; with ELK4, 0.689; in the experiment with ETV4, 0.651; with ETV1, 0.732; in the experiment with ERF, 0.721.

For GAGGCC, the binding signal came out at 0.465 with ERG; 0.427 with ELF1; 0.449 with ELK4; 0.43 with ETV4; 0.419 with ETV1; 0.45 with ERF.

Regarding GAGCGT, the binding signal turned out to be 0.362 in the experiment with ERG; 0.339 in the experiment with ELF1; 0.365 with ELK4; 0.348 with ETV4; 0.346 with ETV1; 0.354 with ERF.

On to GGTAAG, for which the binding signal in the experiment with ERG was 0.771; with ELF1, 0.725; in the experiment with ELK4 it was 0.777; with ETV4 it was 0.711; with ETV1, 0.802; in the experiment with ERF, 0.818.

On to GTCGTT, for which the binding signal in the experiment with ERG was found to be 0.659; in the experiment with ELF1, 0.697; with ELK4, 0.734; with ETV4 it was 0.7; in the experiment with ETV1, 0.667; with ERF, 0.72.

In the case of GGGAAC, the binding signal with ERG was 0.693; with ELF1, 0.65; in the experiment with ELK4 it was 0.683; in the experiment with ETV4, 0.658; in the experiment with ETV1, 0.705; with ERF it was 0.633.

In the case of CGGCGG, the binding signal in the experiment with ERG turned out to be 0.719; with ELF1, 0.635; in the experiment with ELK4, 0.625; with ETV4, 0.62; with ETV1, 0.602; in the experiment with ERF, 0.574.

GGCGAG: the binding signal in the experiment with ERG amounted to 0.567; in the experiment with ELF1, 0.546; in the experiment with ELK4, 0.495; with ETV4, 0.535; in the experiment with ETV1 it was 0.549; with ERF it was 0.552.

For the sequence CGCATC, the binding signal turned out to be 0.965 in the experiment with ERG; 0.915 with ELF1; 0.764 with ELK4; 0.917 with ETV4; 0.883 with ETV1; 0.829 in the experiment with ERF.

As for AGCCTG, the binding signal in the experiment with ERG came out at 0.857; with ELF1 it was 0.865; in the experiment with ELK4, 0.958; with ETV4, 0.898; in the experiment with ETV1 it was 0.882; with ERF, 0.883.

Consider GGCCAT, for which the binding signal in the experiment with ERG worked out at 0.852; with ELF1 it was 0.824; in the experiment with ELK4, 0.869; in the experiment with ETV4, 0.904; with ETV1, 0.836; with ERF, 0.968.

Take GGGCAC: the binding signal came out at 0.792 with ERG; 0.802 with ELF1; 0.853 in the experiment with ELK4; 0.808 in the experiment with ETV4; 0.74 with ETV1; 0.764 with ERF.

Consider CGGGGC, for which the binding signal in the experiment with ERG was 0.619; with ELF1, 0.611; in the experiment with ELK4, 0.635; in the experiment with ETV4 it was 0.631; with ETV1 it was 0.588; with ERF, 0.579.

As for GTTGAG, the binding signal with ERG came out at 0.692; in the experiment with ELF1 it was 0.636; in the experiment with ELK4, 0.697; in the experiment with ETV4 it was 0.672; with ETV1, 0.659; with ERF, 0.66.

GGTCGA: the binding signal was 0.78 with ERG; 0.703 with ELF1; 0.761 with ELK4; 0.829 in the experiment with ETV4; 0.768 in the experiment with ETV1; 0.778 with ERF.

In the case of GTGAGC, the binding signal is 0.378 with ERG; 0.396 with ELF1; 0.434 with ELK4; 0.378 with ETV4; 0.351 in the experiment with ETV1; 0.396 in the experiment with ERF.

For the sequence ACGAGG, the binding signal was determined as 0.74 in the experiment with ERG; 0.814 with ELF1; 0.776 in the experiment with ELK4; 0.805 with ETV4; 0.74 in the experiment with ETV1; 0.742 in the experiment with ERF.

Regarding CGGGAC, the binding signal with ERG turned out to be 0.576; in the experiment with ELF1, 0.569; with ELK4, 0.53; with ETV4 it was 0.557; with ETV1, 0.547; with ERF, 0.515.

For GGTGAA, the binding signal with ERG was 0.731; with ELF1, 0.853; in the experiment with ELK4, 0.735; in the experiment with ETV4 it was 0.745; with ETV1, 0.858; with ERF, 0.771.

Take GGTGCA: the binding signal with ERG came to 0.799; with ELF1, 0.842; with ELK4, 0.926; in the experiment with ETV4 it was 0.861; in the experiment with ETV1, 0.949; with ERF, 0.91.

Values taken from paper PMC7862700.
